Earlier results as cited in US10272082B2, “Combination ALS therapy” (Cytokinetics, Inc., priority 2011, dated 2019).

System: human hepatic microsomes
Details: in vitro; high concentrations required; cited from earlier work

In the case of `CN1C(=O)CN=C(c2ccccc2)c2cc(Cl)ccc21` [diazepam], the “inhibition of the metabolism of riluzole by human hepatic microsomes” value is given as “inhibition has been observed”.
